Assay results published in article PMC4466140, “Evolution of the SH3 Domain Specificity Landscape in Yeasts” (PLoS ONE, 2015).

What was measured:
[1] = target: T1, non-canonical Type I peptide #268 (SPOT membrane) (S. cerevisiae); experiment: peptide or protein array; SPOT: 15-mer peptides on cellulose (CAPE) membrane; GST-SH3 domains at 10 μg/ml overnight at 4°C in blocking buffer (TBS, 50 mM Tris/HCl pH 7.6, 150 mM NaCl, Blocking Buffer, 0.15 M sucrose); detected with anti-GST antibody and HRP conjugate; both purified
T1 sequence (peptide): ITHRLRISIPGITGR

[2] = target: T2, Type II peptide #66 (yeast two-hybrid bait) (S. cerevisiae); experiment: two-hybrid; peptides as bait in pGBKT7, SH3 domains as prey in pYR035 (modified pGADT7); S. cerevisiae Gold strain; ~10^4 cells spotted on His-, His- with 2.5, 5 or 10 mM 3AT, or Ade- plates; three days at 28°C
T2 sequence (peptide): SSSSTPPTLPPRRIE

[3] = target: T3, non-canonical Type I peptide #268 (yeast two-hybrid bait) (S. cerevisiae); experiment: as above
T3 sequence (peptide): ITHRLRISIPGITGR

[4] = target: T4, Type II peptide #66 (SPOT membrane) (S. cerevisiae); experiment: peptide or protein array; SPOT: 15-mer peptides on cellulose (CAPE) membrane; GST-SH3 domains at 10 μg/ml overnight at 4°C in blocking buffer (TBS, 50 mM Tris/HCl pH 7.6, 150 mM NaCl, Blocking Buffer, 0.15 M sucrose); detected with anti-GST antibody and HRP conjugate; both purified
T4 sequence (peptide): SSSSTPPTLPPRRIE

binding [4]	Substance	binding [1]	binding [2]	binding [3]
	GST-tagged C. albicans Rvs167-3 SH3 domain (domain or fragment)	binds		
	A. gossypii Rvs167 SH3 domain (yeast two-hybrid prey) (domain or fragment)		binds	
	C. albicans Rvs167-2 SH3 domain (yeast two-hybrid prey) (domain or fragment)		no binding	no binding
binds	GST-tagged A. gossypii Rvs167 SH3 domain (domain or fragment)			
	C. albicans Rvs167-3 SH3 domain (yeast two-hybrid prey) (domain or fragment)		no binding	binds

Results are given in words; binding and its absence hold for the method and conditions named. A result given as binding can be weak or reduced; the word gives no strength.
